The campaign covered roughly 340,000 compounds. About 170 (0.05%) were called active. The inconclusive results got no clear call from the source; some entries with a clear call stand among them for comparison. The call rests on the fitted dose curve; in most records, active means well fitted inhibition curve with a large enough effect in the signal ratio, with a control signal flat (not every such curve was filed as active); inconclusive means small, poorly fitted or top-dose-only effect, or effect the other way, or a change in a side signal; inactive means flat fitted curve, though single readings scatter; the % refers to the signal ratio. Where the call is inconclusive, the potency comes from a doubtful curve fit.
Assay: qHTS Assay to Find Inhibitors of Chronic Active B-Cell Receptor Signaling;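 on activity change, negative = inhibition: plate controls were basal doxycycline-induced cells for no effect and cells given 10 µM MG132 for full effect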
Settings: ABC-DLBCL IkBa-CBG/CBR reporter, luminescence ratio (green luciferase fused to IkBa over red control in TMD8 lymphoma cells), 4 h; activity change, negative = inhibition: at 46.1 µM (top of the series)
Method in brief: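 TMD8 human ABC-DLBCL cells with doxycycline-inducible IκBα–green luciferase fusion and unfused red luciferase, in 0.5% FBS medium; compounds up to 46 uM, 4 h at 37C. Green/red luminescence ratio, filter-overlap corrected, fitted to concentration-response curves.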
Potency means the concentration at half of the fitted maximal effect.

Structure (SMILES) | activity change, negative = inhibition | Potency
O=C(CN1CCCCC1)N/N=C/c1cccc(Cl)c1 | inconclusive: 0.192% | –
O=C(CSc1nc2[nH]ncc2c(=O)n1-c1ccc(Cl)c(Cl)c1)NCc1ccccc1Cl | inconclusive: 7.33% | –
COc1ccccc1C(=O)NCCC(=O)NCc1cccs1 | inconclusive: 5.54% | –
C=CCSc1nc(N)c2c(C)c(C)sc2n1 | – | inconclusive: 17.8 µM [falling, partial curve, poor fit]
CC(C)(C)c1csc(NC(=O)c2ccccc2O)n1 | – | inconclusive: 3.55 µM [falling, partial curve]
COC(=O)c1ccc([C@H]2CC(=O)O2)cc1 | inconclusive: -3.87% | –
COc1ccc(-c2nc(CN3CCC(C(=O)N4CCOCC4)CC3)c(C)o2)cc1OC | inactive: 0.621% | –
O=C(c1cc(COc2c(F)cccc2F)on1)N1CCC(c2ccccc2F)C1 (configuration not stated) | inconclusive: 14.8% | –
CCCCOC(=S)NC(=O)c1sc2ccccc2c1Cl | inconclusive: 9.58% | –
Cc1cc(O)cc(O)c1C(=O)Cc1cnn(-c2ccccc2)c1 | – | inconclusive: 3.66 µM [rising, partial curve, poor fit]
Cc1cc(C(=O)N/N=C/c2sc(N3CCOCC3)nc2-c2ccccc2)c(C)o1 | – | inconclusive: 0.631 µM [falling, partial curve, poor fit]
CCCS(=O)(=O)c1cnc(C2COc3ccccc3O2)nc1N (configuration not stated) | – | inconclusive: 35.5 µM [falling, single point]
COc1ccc(N2C(=O)NC(=O)C2=O)cc1 | inactive: 11% | –
CCN(CC(O)Cn1c2ccccc2c2ccccc21)S(=O)(=O)c1ccc(C)cc1 (configuration not stated) | – | inconclusive: 6.51 µM [falling, single point]
c1ccc(Nc2nc3ccccc3n3nnnc23)cc1 | – | inconclusive: 2.51 µM [falling, full curve]
CCCC(=O)Nc1cccc(Oc2ccc3c(c2)C(=O)NC3=O)c1 | – | inconclusive: 22.4 µM [falling, single point]
O=C(COc1ccccc1[N+](=O)[O-])N/N=C/c1cccs1 | inconclusive: 2.07% | –
O=C(Cc1ccsc1)OCC(=O)c1ccccc1 | inconclusive: 3.9% | –
Cc1ccc(S(=O)(=O)NC(=O)c2cc(C)n(-c3ccc(N(C)C)cc3)c2C)cc1 | inconclusive: 18.7% | –
Cn1c(=O)c2c(ncn2CC(COCc2ccccc2Cl)OCc2ccccc2Cl)n(C)c1=O (configuration not stated) | inconclusive: 10.6% | –
O=C(Cc1c[nH]c2ccccc12)NCc1ccc2c(c1)OCO2 | inconclusive: -2.31% | –
CN1CCN(C(=O)CSc2cc(=O)n(C)c3ccccc23)CC1 | – | inconclusive: 22.4 µM [falling, single point]

Record cards, from the list above.
COc1ccccc1C(=O)NCCC(=O)NCc1cccs1 in the list: activity change, negative = inhibition: inconclusive: 5.54%
CC(C)(C)c1csc(NC(=O)c2ccccc2O)n1 in the list: Potency: inconclusive: 3.55 µM [falling, partial curve]

Reference: PubChem BioAssay AID493014 (National Center for Advancing Translational Sciences (NCATS), 2011)
